Experimental data reported in the supplement of paper PMC8728848.
The list shows a part of the results.

Columns and labels:
Experiment in all cases: glycan array binding signal (z-score within array); higher = stronger binding
Settings in all cases: glycan notation: IUPAC condensed, linker removed
[1] = target: Neu5Ac(a2-3)Gal(b1-3)[Fuc(a1-4)]GlcNAc
Procedure, shortened: (§1)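 Glycan array data came from 3228 arrays in the Consortium for Functional Glycomics database, and only arrays with an available protein sequence were kept. Glycan names were put into IUPAC-condensed notation, and columns mapping to the same glycan were averaged. The binding signal is a within-array Z-score, averaged across arrays of one protein sequence run at different concentrations or buffers and across linkers. A negative Z-score can be read as non-binding.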

[2] = target: Neu5Ac(a2-3)Gal(b1-3)[Fuc(a1-4)]GlcNAc(b1-3)Gal(b1-3)[Fuc(a1-4)]GlcNAc
Procedure, shortened: as §1

[3] = target: Neu5Ac(a2-3)Gal(b1-3)[Fuc(a1-4)]GlcNAc(b1-3)Gal(b1-4)[Fuc(a1-3)]GlcNAc
Procedure, shortened: as §1

[4] = target: Neu5Ac(a2-3)Gal(b1-3)[GlcNAc(b1-6)]GalNAc
Procedure, shortened: as §1

[5] = target: Neu5Ac(a2-3)Gal(b1-3)[Neu5Ac(a2-6)]GalNAc
Procedure, shortened: as §1

[6] = target: Neu5Ac(a2-3)Gal(b1-3)[Neu5Ac(a2-6)]GlcNAc(b1-3)[Fuc(a1-3)[Gal(b1-4)]GlcNAc(b1-6)]Gal(b1-4)Glc
Procedure, shortened: as §1

[7] = target: Neu5Ac(a2-3)Gal(b1-3)]Neu5Ac(a2-3)Gal(b1-4)]GlcNAc
Procedure, shortened: as §1

[8] = target: Neu5Ac(a2-3)Gal(b1-4)Glc
Procedure, shortened: as §1

[9] = target: Neu5Ac(a2-3)Gal(b1-4)GlcNAc
Procedure, shortened: as §1

[10] = target: Neu5Ac(a2-3)Gal(b1-4)GlcNAc(b1-2)Man
Procedure, shortened: as §1

[11] = target: Neu5Ac(a2-3)Gal(b1-4)GlcNAc(b1-2)Man(a1-3)[GlcNAc(b1-4)][Neu5Ac(a2-3)Gal(b1-4)GlcNAc(b1-2)Man(a1-6)]Man(b1-4)GlcNAc(b1-4)GlcNAc
Procedure, shortened: as §1

[12] = target: Neu5Ac(a2-3)Gal(b1-4)GlcNAc(b1-2)Man(a1-3)[Neu5Ac(a2-3)Gal(b1-4)GlcNAc(b1-2)Man(a1-6)]Man(b1-4)GlcNAc(b1-4)GlcNAc
Procedure, shortened: as §1

[13] = target: Neu5Ac(a2-3)Gal(b1-4)GlcNAc(b1-2)Man(a1-3)[Neu5Ac(a2-3)Gal(b1-4)GlcNAc(b1-2)Man(a1-6)]Man(b1-4)GlcNAc(b1-4)[Fuc(a1-6)]GlcNAc
Procedure, shortened: as §1

[14] = target: Neu5Ac(a2-3)Gal(b1-4)GlcNAc(b1-2)Man(a1-3)[Neu5Ac(a2-6)Gal(b1-4)GlcNAc(b1-2)Man(a1-6)]Man(b1-4)GlcNAc(b1-4)GlcNAc
Procedure, shortened: as §1

[15] = target: Neu5Ac(a2-3)Gal(b1-4)GlcNAc(b1-2)[Neu5Ac(a2-3)Gal(b1-4)GlcNAc(b1-4)]Man(a1-3)[GlcNAc(b1-4)][Neu5Ac(a2-3)Gal(b1-4)GlcNAc(b1-2)[Neu5Ac(a2-3)Gal(b1-4)GlcNAc(b1-6)]Man(a1-6)]Man(b1-4)GlcNAc(b1-4)GlcNAc
Procedure, shortened: as §1

[16] = target: Neu5Ac(a2-3)Gal(b1-4)GlcNAc(b1-2)[Neu5Ac(a2-3)Gal(b1-4)GlcNAc(b1-4)]Man(a1-3)[GlcNAc(b1-4)][Neu5Ac(a2-3)Gal(b1-4)GlcNAc(b1-4)Man(a1-6)]Man(b1-4)GlcNAc(b1-4)GlcNAc
Procedure, shortened: as §1

[17] = target: Neu5Ac(a2-3)Gal(b1-4)GlcNAc(b1-2)[Neu5Ac(a2-3)Gal(b1-4)GlcNAc(b1-6)]Man(a1-6)[Neu5Ac(a2-3)Gal(b1-4)GlcNAc(b1-2)Man(a1-3)]Man(b1-4)GlcNAc(b1-4)GlcNAc
Procedure, shortened: as §1

[18] = target: Neu5Ac(a2-3)Gal(b1-4)GlcNAc(b1-2)[Neu5Ac(a2-3)Gal(b1-4)GlcNAc(b1-6)]Man(a1-6)[Neu5Ac(a2-3)Gal(b1-4)GlcNAc(b1-2)Man(a1-3)][GlcNAc(b1-4)]Man(b1-4)GlcNAc(b1-4)GlcNAc
Procedure, shortened: as §1

[19] = target: Neu5Ac(a2-3)Gal(b1-4)GlcNAc(b1-3)Gal
Procedure, shortened: as §1

[20] = target: Neu5Ac(a2-3)Gal(b1-4)GlcNAc(b1-3)Gal(b1-3)GlcNAc
Procedure, shortened: as §1

[21] = target: Neu5Ac(a2-3)Gal(b1-4)GlcNAc(b1-3)Gal(b1-4)GlcNAc
Procedure, shortened: as §1

[22] = target: Neu5Ac(a2-3)Gal(b1-4)GlcNAc(b1-3)Gal(b1-4)GlcNAc(b1-2)Man(a1-3)[Neu5Ac(a2-3)Gal(b1-4)GlcNAc(b1-3)Gal(b1-4)GlcNAc(b1-2)Man(a1-6)]Man(b1-4)GlcNAc(b1-4)GlcNAc
Procedure, shortened: as §1

[23] = target: Neu5Ac(a2-3)Gal(b1-4)GlcNAc(b1-3)Gal(b1-4)GlcNAc(b1-3)Gal(b1-4)GlcNAc
Procedure, shortened: as §1

[24] = target: Neu5Ac(a2-3)Gal(b1-4)GlcNAc(b1-3)Gal(b1-4)GlcNAc(b1-3)Gal(b1-4)GlcNAc(b1-2)Man(a1-3)[Neu5Ac(a2-3)Gal(b1-4)GlcNAc(b1-3)Gal(b1-4)GlcNAc(b1-3)Gal(b1-4)GlcNAc(b1-2)Man(a1-6)]GalNAc
Procedure, shortened: as §1

[25] = target: Neu5Ac(a2-3)Gal(b1-4)GlcNAc(b1-3)Gal(b1-4)GlcNAc(b1-3)GalNAc
Procedure, shortened: as §1

[26] = target: Neu5Ac(a2-3)Gal(b1-4)GlcNAc(b1-3)Gal(b1-4)GlcNAc(b1-3)[Neu5Ac(a2-3)Gal(b1-4)GlcNAc(b1-3)Gal(b1-4)GlcNAc(b1-6)]GalNAc
Procedure, shortened: as §1

[27] = target: Neu5Ac(a2-3)Gal(b1-4)GlcNAc(b1-3)Gal(b1-4)GlcNAc(b1-6)[Gal(b1-3)]GalNAc
Procedure, shortened: as §1

[28] = target: Neu5Ac(a2-3)Gal(b1-4)GlcNAc(b1-3)Gal(b1-4)[Fuc(a1-3)]GlcNAc
Procedure, shortened: as §1

[29] = target: Neu5Ac(a2-3)Gal(b1-4)GlcNAc(b1-3)GalNAc
Procedure, shortened: as §1

[30] = target: Neu5Ac(a2-3)Gal(b1-4)GlcNAc(b1-3)[Neu5Ac(a2-3)Gal(b1-4)GlcNAc(b1-6)]GalNAc
Procedure, shortened: as §1

B1: CD4 (Rattus norvegicus), P05540 (protein)
chain: MCRGFSFRHLLPLLLLQLSKLLVVTQGSTSITAYKSEGESAEFSFPLNLGEESLQGELRWKAEKAPSSQSWITFSLKNQKVSVQKSTSNPKFQLSETLPLTLQIPQVSLQFAGSGNLTLTLDRGILYQEVNLVVMKVTQPDSNTLTCEVMGPTSPKMRLILKQENQEARVSRQEKVIQVQAPEAGVWQCLLSEGEEVKMDSKIQVLSKGLNSGGGSGGGTGGGDLAPQMLRELQETNAALQDVRELLRQQVKEITFLKNTVMECDACGLDRNLPPLAPLGPHPETLVKVKDAEDQLGARVGYIELDLNSGKILESFRPEERFPMMSTFKVLLCGAVLSRIDAGQEQLGRRIHYSQNDLVEYSPVTEKHLTDGMTVRELCSAAITMSDNTAANLLLTTIGGPKELTAFLHNMGDHVTRLDRWEPELNEAIPNDERDTTMPVAMATTLRKLLTGELLTLASRQQLIDWMEADKVAGPLLRSALPAGWFIADKSGAGERGSRGIIAALGPDGKPSRIVVIYTTGSQATMDERNRQIAEIGASLIKHW
glycan array binding signal (z-score) [1]: 1.6
glycan array binding signal (z-score) [2]: 0.245
glycan array binding signal (z-score) [3]: 0.511
glycan array binding signal (z-score) [4]: 0.032
glycan array binding signal (z-score) [5]: -0.438
glycan array binding signal (z-score) [6]: 1.65
glycan array binding signal (z-score) [7]: 2.57
glycan array binding signal (z-score) [8]: -0.058
glycan array binding signal (z-score) [9]: -1.67
glycan array binding signal (z-score) [10]: -0.75
glycan array binding signal (z-score) [11]: 0.268
glycan array binding signal (z-score) [12]: -0.687
glycan array binding signal (z-score) [13]: -1.2
glycan array binding signal (z-score) [14]: -0.682
glycan array binding signal (z-score) [15]: 0.008
glycan array binding signal (z-score) [16]: -0.2
glycan array binding signal (z-score) [17]: -0.485
glycan array binding signal (z-score) [18]: -0.436
glycan array binding signal (z-score) [19]: -0.672
glycan array binding signal (z-score) [20]: -0.14
glycan array binding signal (z-score) [21]: -1.14
glycan array binding signal (z-score) [22]: 0.678
glycan array binding signal (z-score) [23]: 1.87
glycan array binding signal (z-score) [24]: 3.17
glycan array binding signal (z-score) [25]: -0.775
glycan array binding signal (z-score) [26]: 0.591
glycan array binding signal (z-score) [27]: 0.031
glycan array binding signal (z-score) [28]: -0.652
glycan array binding signal (z-score) [29]: 0.368
glycan array binding signal (z-score) [30]: -0.404
